This assay addresses LRFN2 expressed from the PGK-LRFN2 plasmid (UniProt Q80TG9). Briefly: co-IP.

Protein sequences, listed by entry. Tags and fused reporters are not part of them. Residues count along the entry.
UniProt Q80TG9, residues 21-788: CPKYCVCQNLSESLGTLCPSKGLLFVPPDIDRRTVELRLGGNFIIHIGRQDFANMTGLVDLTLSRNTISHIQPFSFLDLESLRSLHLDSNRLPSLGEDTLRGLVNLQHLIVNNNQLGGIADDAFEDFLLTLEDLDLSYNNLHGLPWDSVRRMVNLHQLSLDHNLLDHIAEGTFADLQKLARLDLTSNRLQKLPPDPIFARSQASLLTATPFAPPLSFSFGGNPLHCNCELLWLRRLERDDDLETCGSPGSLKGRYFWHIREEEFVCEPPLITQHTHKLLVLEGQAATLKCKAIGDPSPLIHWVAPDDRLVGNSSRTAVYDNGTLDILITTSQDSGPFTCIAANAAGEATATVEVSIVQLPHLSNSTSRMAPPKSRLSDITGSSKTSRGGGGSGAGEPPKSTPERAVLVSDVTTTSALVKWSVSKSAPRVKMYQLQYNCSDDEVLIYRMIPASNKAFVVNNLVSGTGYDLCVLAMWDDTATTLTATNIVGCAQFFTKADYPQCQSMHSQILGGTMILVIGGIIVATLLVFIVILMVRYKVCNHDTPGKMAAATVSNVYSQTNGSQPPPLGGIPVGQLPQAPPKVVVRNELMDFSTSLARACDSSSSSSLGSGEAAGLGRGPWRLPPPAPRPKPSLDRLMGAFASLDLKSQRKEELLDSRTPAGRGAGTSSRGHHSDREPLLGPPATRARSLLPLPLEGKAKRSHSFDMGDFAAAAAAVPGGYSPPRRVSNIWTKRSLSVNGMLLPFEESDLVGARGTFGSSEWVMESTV
UniProt Q2TV84: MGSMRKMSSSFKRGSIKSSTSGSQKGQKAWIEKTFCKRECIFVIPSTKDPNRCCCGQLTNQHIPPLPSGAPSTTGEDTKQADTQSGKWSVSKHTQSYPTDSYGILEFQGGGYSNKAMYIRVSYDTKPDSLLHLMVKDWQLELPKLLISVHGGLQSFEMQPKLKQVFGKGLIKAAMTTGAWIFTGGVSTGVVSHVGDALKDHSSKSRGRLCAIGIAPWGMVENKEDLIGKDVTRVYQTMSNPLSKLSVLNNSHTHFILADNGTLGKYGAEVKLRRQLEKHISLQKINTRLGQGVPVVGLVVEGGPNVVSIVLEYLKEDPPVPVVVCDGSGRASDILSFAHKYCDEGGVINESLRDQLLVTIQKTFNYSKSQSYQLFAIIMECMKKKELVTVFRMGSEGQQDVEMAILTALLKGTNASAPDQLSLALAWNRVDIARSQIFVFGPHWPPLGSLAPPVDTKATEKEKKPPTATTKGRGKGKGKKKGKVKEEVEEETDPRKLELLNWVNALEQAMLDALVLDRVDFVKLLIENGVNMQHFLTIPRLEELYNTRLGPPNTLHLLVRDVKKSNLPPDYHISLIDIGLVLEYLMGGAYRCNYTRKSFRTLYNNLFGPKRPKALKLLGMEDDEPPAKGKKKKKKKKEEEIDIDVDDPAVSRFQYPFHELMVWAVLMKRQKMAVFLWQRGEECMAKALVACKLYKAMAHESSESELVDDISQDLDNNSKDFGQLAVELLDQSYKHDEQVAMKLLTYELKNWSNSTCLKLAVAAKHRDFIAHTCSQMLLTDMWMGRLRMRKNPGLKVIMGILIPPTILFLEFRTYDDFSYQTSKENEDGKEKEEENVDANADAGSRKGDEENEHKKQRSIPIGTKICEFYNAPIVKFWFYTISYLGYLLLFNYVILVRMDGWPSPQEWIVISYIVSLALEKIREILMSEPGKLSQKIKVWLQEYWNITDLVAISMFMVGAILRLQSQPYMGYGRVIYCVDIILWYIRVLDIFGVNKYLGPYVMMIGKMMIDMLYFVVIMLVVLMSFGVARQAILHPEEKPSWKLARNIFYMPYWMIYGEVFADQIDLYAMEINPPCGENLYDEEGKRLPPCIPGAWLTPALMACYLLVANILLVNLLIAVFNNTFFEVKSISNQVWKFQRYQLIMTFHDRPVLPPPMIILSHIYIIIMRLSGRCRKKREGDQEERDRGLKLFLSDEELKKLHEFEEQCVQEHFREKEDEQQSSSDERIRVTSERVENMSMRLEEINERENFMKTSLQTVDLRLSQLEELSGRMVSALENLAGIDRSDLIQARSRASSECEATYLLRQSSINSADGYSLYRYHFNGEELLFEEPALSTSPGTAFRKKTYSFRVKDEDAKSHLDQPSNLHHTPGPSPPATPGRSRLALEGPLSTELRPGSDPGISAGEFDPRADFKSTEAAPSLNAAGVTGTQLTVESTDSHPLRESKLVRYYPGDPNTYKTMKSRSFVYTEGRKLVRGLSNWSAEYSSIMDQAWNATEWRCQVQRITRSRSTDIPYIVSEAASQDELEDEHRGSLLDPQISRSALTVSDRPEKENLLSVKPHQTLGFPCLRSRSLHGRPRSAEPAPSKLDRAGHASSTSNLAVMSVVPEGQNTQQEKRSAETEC

These are yes or no findings as the source states them, for the method shown. In cells and extracts the contact can be indirect. Some results given as binding are weak or reduced against the parent protein; the word gives no strength.

Take “TRPM1 expressed from the CMV-TRPM1 plasmid (from UniProt Q2TV84 1-1622)”: the binding result was “binds”.

The values are drawn from publication doi:10.1101/2023.05.24.542135.
